Results from PubChem BioAssay AID504834 (National Center for Advancing Translational Sciences (NCATS), 2011).
Among all 320,000 compounds or so, about 22,000 (6.9%) were called active. Inconclusive means that the source gave no clear call. Such entries were picked first, then a sample of the others. Calls come from the whole dose curve; as a rule, active = well fitted inhibition curve with a large enough effect; inconclusive = small, poorly fitted or top-dose-only effect, or another doubt; inactive = no such curve, though single readings can be large or run the other way. Potencies of inconclusive entries are doubtful fits and often do not repeat.

assay: Primary qHTS for delayed death inhibitors of the malarial parasite plastid, 96 hour incubation; settings: P. falciparum luciferase reporter growth; series mostly up to 28.7 µM; activity change, negative = inhibition: at the top concentration
How it was run: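 96 h incubation, 37 C, 5% CO2, of luciferase-reporter P. falciparum-infected RBCs (2% hematocrit, 0.05% parasitemia final) with test compounds; endpoint luminescence.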
% is set by controls: 0 for no effect and ±100 for the full control effect; potency is the fitted concentration of half-maximal effect.

Row | Structure (SMILES) | activity change, negative = inhibition | Potency
1 | CC(C)C(OC(=O)c1ccco1)C(=O)NCc1ccco1 (stereo unspecified) | inactive: -15% | 
2 | CCCn1c(C(C)Nc2nc(-c3ccc(Cl)c([N+](=O)[O-])c3)cs2)nc2ccccc21 (stereo unspecified) |  | active: 5.86 µM
3 | CCc1c(C)[nH]c2nc3ccccc3n2c1=O |  | inconclusive: 2.33 µM [inhibitor, partial curve, poor fit]
4 | COCCn1c(SCC(=O)Nc2cc(C)on2)nnc1-c1ccccc1 |  | inconclusive: 6.57 µM [inhibitor, partial curve, poor fit]
5 | COc1ccc(Cc2noc(CN3CCN(Cc4cccc(Cl)c4)CC3)n2)cc1OC |  | active: 8.28 µM
6 | FC(F)(F)c1cccc(Sc2cc(C(F)(F)F)nc(-c3ccccn3)n2)c1 |  | inconclusive: 0.0041 µM [inhibitor, full curve, poor fit]
7 | CCc1cc2c(SCC(=O)N3CC(=O)Nc4ccccc43)ncnc2s1 |  | inconclusive: 11.7 µM [inhibitor, single point]
8 | Oc1ccc(N2CCN(c3ncnc4sc5c(c34)CCC5)CC2)cc1 |  | inconclusive: 0.0033 µM [inhibitor, full curve, poor fit]
9 | CCOc1ccccc1OCC(=O)Nc1ccc(N2CCOCC2)cc1N1CCOCC1 | inactive: -29% | 
10 | CC(=O)c1ccc(S(=O)(=O)NCCc2csc(-c3cccnc3)n2)cc1 |  | inconclusive: 7.38 µM [inhibitor, partial curve]
11 | CN1C(=O)CC(c2cn(Cc3ccccc3)c3ccccc23)C1=O (stereo unspecified) |  | active: 2.62 µM
12 | O=C(COc1ccccc1Cl)NC(=S)N1CCc2ccccc21 |  | inconclusive: 0.0033 µM [inhibitor, full curve]
13 | CCCCNc1c(-c2cccc(-c3ccc(OC)cc3)c2)nc2ccc(C)cn12 |  | active: 3.7 µM
14 | COc1ccc(CC(=O)NNC(=O)CSc2ccc(C)cc2)cc1 |  | inconclusive: 2.33 µM [inhibitor, full curve, poor fit]
15 | O=C(NC(=S)NNC(=O)c1ccc(Cl)cc1Cl)c1cccnc1 |  | inconclusive: 18.5 µM [inhibitor, single point]
16 | Cc1cccc(N/C(N)=N/c2nc(C)c(Cc3ccccc3)c(=O)[nH]2)c1 |  | inconclusive: 0.586 µM [inhibitor, partial curve, poor fit]
17 | CN(C)CCCN=c1cc(-c2ccccc2)oc2ccc(Cl)cc12 |  | inconclusive: 0.147 µM [inhibitor, full curve, poor fit]
18 | COc1cccc(-n2cc(C(=O)O)c3ccccc3c2=O)c1 |  | inconclusive: 0.0029 µM [inhibitor, full curve, poor fit]
19 | COc1cccc(OC)c1OCCCCN1CCCC1 |  | inconclusive: 18.5 µM [inhibitor, single point]
20 | CC(C)(C)c1nc(SCC(=O)Nc2nc3c(s2)CCCC3)c2ccccc2n1 |  | inconclusive: 1.04 µM [inhibitor, partial curve]
21 | O=c1cc(Cl)[nH]c(=O)n1Cc1ccc(F)cc1 |  | inconclusive: 18.5 µM [inhibitor, single point]

Rewritten field by field: part of the list above
COc1ccc(Cc2noc(CN3CCN(Cc4cccc(Cl)c4)CC3)n2)cc1OC
  Potency: active: 8.28 µM
COc1cccc(-n2cc(C(=O)O)c3ccccc3c2=O)c1
  Potency: inconclusive: 0.0029 µM [inhibitor, full curve, poor fit]

Additional records follow:

Row | Structure (SMILES) | activity change, negative = inhibition | Potency
22 | CC(=O)c1ccc(OCc2cc(C(=O)N(C)Cc3ncc(C)[nH]3)no2)cc1 |  | inconclusive: 18.5 µM [inhibitor, single point]
23 | Cc1cc(C)cc(Oc2nc(C(F)(F)F)nc3ccccc23)c1 |  | inconclusive: 10.4 µM [inhibitor, partial curve]
24 | CCOC(=O)[C@@H]1[C@H]2COc3ccccc3[C@H]2N2C(=O)N(c3ccc(C(F)(F)F)cc3)C(=O)[C@]12C |  | active: 5.22 µM
25 | COc1cccc(NC(=S)N(CCc2c(C)[nH]c3ccccc23)Cc2ccco2)c1 |  | inconclusive: 2.62 µM [inhibitor, partial curve, poor fit]
26 | Cc1cccc(OCC(=O)N/N=C2/SCC(=O)N2Cc2ccco2)c1 |  | inconclusive: 10.4 µM [inhibitor, single point]
27 | CCc1ccc(CNC(=O)CCn2nc(C)c3c(C)n(-c4ccccc4)nc3c2=O)cc1 |  | inconclusive: 20.8 µM [inhibitor, partial curve, poor fit]
28 | CCOC(=O)c1c(C)[nH]c(C(=O)OCC(=O)Nc2sc(C(=O)N(C)C)c(C)c2C(=O)OCC)c1C |  | inconclusive: 9.28 µM [inhibitor, single point]
29 | Cn1c(N)c(C(=O)c2ccc(C#N)cc2)c(=O)n(C)c1=O | inactive: -16% | 
30 | CCOC(=O)N1CCC(NC(=O)c2ccc3nc4ccccc4c(=O)n3c2)CC1 | inactive: 65.1% | 
31 | CC(C)OCCCNC(=O)COc1ccc2oc3c(c2c1)CCCC3 |  | active: 4.15 µM
32 | CCC[N+]12CCC(CC1)C(=C(c1ccccc1)c1ccccc1)C2 |  | inconclusive: 1.04 µM [inhibitor, full curve, poor fit]
33 | O=C(CCCCCNC(=O)N1CCn2c1nc1ccccc12)N[C@H](Cc1ccccc1)C(=O)O |  | inconclusive: 0.0026 µM [inhibitor, full curve, poor fit]
34 | COc1ccc2c(c1)sc(=N)n2CC(=O)Nc1cc(C)cc(C)c1 |  | inconclusive: 18.5 µM [inhibitor, single point]
35 | CCOc1ccc(NC(=O)CSc2ccc(-c3ccccn3)nn2)cc1 |  | inconclusive: 18.5 µM [inhibitor, single point]
36 | Nc1nnc(CC(=O)N/N=C/c2ccc(-c3ccccc3Cl)o2)s1 |  | inconclusive: 10.4 µM [inhibitor, single point]
37 | O=C1CC2(CCN(C(=O)COc3ccccc3)CC2)Oc2ccccc21 |  | inconclusive: 9.28 µM [inhibitor, partial curve, poor fit]
38 | COc1cccc(C(=O)Nc2cccc(-c3nnc(-c4ccco4)o3)c2)c1 |  | inconclusive: 9.28 µM [inhibitor, partial curve, poor fit]
39 | COc1cc(C(=O)OCC(=O)c2c[nH]c3ccccc23)ccc1OCC(=O)N1CCOCC1 |  | inconclusive: 13.1 µM [inhibitor, single point]
40 | Cc1noc(NS(=O)(=O)c2ccc(NC(=O)c3cc(-c4ccccc4Cl)nc4ccccc34)cc2)c1C |  | inconclusive: 18.5 µM [inhibitor, single point]
41 | CCCC[n+]1ccn(-c2nc3ccccc3nc2[N-]S(=O)(=O)c2ccccc2)c1 |  | active: 14.7 µM
